In all, about 360,000 compounds went through this assay and about 7,500 (2.1%) were called active. This list was built around the results that the source calls inconclusive (neither active nor inactive); the mix of calls is not that of the screen. Calls follow the shape of the dose curve; as a rule, active = well fitted inhibition curve with a large enough effect; inconclusive = small, poorly fitted or top-dose-only effect, or effect the other way; inactive = flat fitted curve, though single readings scatter. A potency beside an inconclusive call is a rough fit, not a confirmed value.
Assay: Nrf2 qHTS screen for inhibitors; also: nearly all actives have a fitted effect of over 60% in size
Conditions: A549 ARE-Fluc reporter, luciferase luminescence, 18-24 h; activity change, negative = inhibition: at 46 µM (top of the series)
In short: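 A549 ARE_Fluc cells (5000/well, 5% FBS OPTI-MEM) pre-incubated 2 h, then treated with compounds 18-24 h at 37C/5% CO2 in concentration-response. CellTiter-Fluor viability read first; BugLite luciferase luminescence after 15 min at room temperature gives Nrf2 activity.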
% is scaled to controls: 0 for no effect and ±100 for the full control effect; potency is read from the fitted curve at half-maximal effect.

Row | SMILES | Potency | activity change, negative = inhibition
1 | CC(C)Cc1ccc(/C=C/C(=O)NC2CC2)cc1 | inconclusive: 1.84 µM [activator, full curve] | –
2 | COc1nc(-c2ccc(Cl)cc2)ccc1-c1noc(-c2ccco2)n1 | – | inactive: 16%
3 | O=S(=O)(NC1CCCCC1)c1ccc(-c2csnn2)s1 | inconclusive: 2.59 µM [falling, partial curve, poor fit] | –
4 | O=C(NCc1ccccn1)C1CCN(C(=O)c2cc3sccc3n2Cc2ccc(F)cc2)CC1 | inconclusive: 25.9 µM [falling, partial curve, poor fit] | –
5 | O=C(C1CCCN(S(=O)(=O)c2cccc3nonc23)C1)N1CCN(c2ccccc2F)CC1 (configuration not stated) | – | inactive: -25%
6 | CC(C)Cn1c(N)c(C(=O)COC(=O)c2cccc(F)c2)c(=O)n(C)c1=O | – | inactive: -12.3%
7 | CCCCN(C)C(=O)C1CCN(c2ccc(S(=O)(=O)N3CCOCC3)cc2[N+](=O)[O-])CC1 | inconclusive: 25.9 µM [falling, single point] | –
8 | CCn1c(=O)c2sccc2n2c(CCCC(=O)Nc3ccc(C)cc3)nnc12 | inconclusive: 1.64 µM [activator, full curve, poor fit] | –
9 | COc1cc(NC(=O)c2c(C)nn(-c3ccc(F)cc3)c2-n2cccc2)cc(OC)c1 | – | inactive: 22%
10 | COc1ccc(-n2nnnc2C2CCN(S(=O)(=O)c3cc(Cl)ccc3OC)CC2)cc1 | inconclusive: 14.6 µM [falling, single point] | –
11 | O=C(COc1ccc(-n2cnnn2)cc1)N1CCN(c2ccc(F)cc2)CC1 | inconclusive: 20.6 µM [falling, single point] | –
12 | N#Cc1nc(-c2ccc(OCc3ccccc3)cc2)oc1NCc1cccnc1 | inconclusive: 29.1 µM [falling, single point] | –
13 | CCOC(=O)NCc1cc(-c2nn(C)c(=O)c3ccccc23)ccc1C | inconclusive: 25.9 µM [falling, single point] | –
14 | Cc1ccc(O)c(NC2=C(Cl)C(=O)N(Cc3ccccc3)C2=O)c1 | – | inactive: -9.88%
15 | O=C(Nc1n[nH]c(=S)s1)c1ccc2ccccc2c1 | inconclusive: 3.66 µM [activator, full curve] | –
16 | CCCn1c(SCC(=O)NCc2ccc(Cl)cc2)n[nH]c1=O | inconclusive: 18.4 µM [falling, single point] | –
17 | O=C(C[C@H]1C[C@H](C(=O)N2CCOCC2)[C@@]2(CCC3CCCC3)c3[nH]c4cc(-c5ccco5)ccc4c3CCN2C1=O)NCCN1CCOCC1 | inconclusive: 29.1 µM [falling, single point] | –
18 | COc1ccc(/C=C/c2noc(-c3ccccc3OC(C)=O)n2)cc1 | inconclusive: 16.4 µM [activator, single point] | –
19 | COc1cccc(Nc2nc(-c3cccs3)nc3ccccc23)c1 | – | inactive: -18.3%
20 | COc1ccc(-c2nc(SCC(=O)NCc3nc4ccccc4n3C)n3[nH]c(=O)cc3n2)cc1 | inconclusive: 16.4 µM [activator, partial curve, poor fit] | –
21 | Cc1cccc(COCC(Cc2ccccc2)N2CCN(C(=O)c3cccc(C)c3)CCC2=O)c1 (configuration not stated) | – | inactive: -11.4%
22 | O=C(Nc1nnc(-c2ccccc2)o1)NC1CCCCC1 | inconclusive: 23.1 µM [falling, partial curve, poor fit] | –
23 | COc1ccccc1NC(=O)Cn1c2ccccc2c2nc3n(c(=O)c21)CCS3 | – | inactive: -16.3%

Row | SMILES | Potency | activity change, negative = inhibition
24 | COc1cccc(/C=N/NC(=O)N/N=C/c2cccc(OC)c2O)c1O | – | inactive: -6.13%
25 | CC(NC(=O)c1cccc(Nc2nc3ccccc3n3nnnc23)c1)c1ccccc1 (configuration not stated) | inconclusive: 13 µM [falling, partial curve, poor fit] | –
26 | C=CCN(CC=C)C(=S)NC(=O)c1ccc(-c2ccccc2)cc1 | inconclusive: 23.1 µM [falling, single point] | –
27 | CC(=O)OCCCn1c(C)[n+](C)c2cc(Cl)c(Cl)cc21 | inconclusive: 23.1 µM [falling, single point] | –
28 | C/C(CC(=O)Nc1ccc(C)c(Cl)c1)=N\NC(=O)c1ccccn1 | inconclusive: 20.6 µM [activator, single point] | –
29 | CCn1c(O)c(C=NCc2ccccc2)sc1=S | inconclusive: 23.1 µM [falling, partial curve, poor fit] | –
30 | Cc1ccccc1OCC(=O)Nc1cccc(NC(=O)c2ccco2)c1 | inconclusive: 18.4 µM [falling, single point] | –
31 | O=C(Nc1ccc(SC(F)F)cc1)C1=CC=CN2CCS(=O)(=O)N=C12 | – | inactive: -7.14%
32 | Cc1cccc(-n2nnc(-c3nc(-c4cccs4)no3)c2N)c1C | inconclusive: 0.82 µM [activator, full curve, poor fit] | –
33 | O=C(Nc1nc2cc3c(cc2s1)OCO3)c1ccco1 | inconclusive: 3.26 µM [activator, partial curve] | –
34 | O=C1C2=C(Nc3ccccc3SC2c2ccc(C(F)(F)F)cc2)c2ccccc21 (configuration not stated) | inconclusive: 29.1 µM [falling, single point] | –
35 | Cn1cc(CNCc2ccc(OC(F)(F)F)cc2)c(-c2ccc3c(c2)OCCO3)n1 | inconclusive: 29.1 µM [falling, single point] | –
36 | O=S(=O)(c1ccccc1)c1cccc(S(=O)(=O)N2CCCCC2)c1 | inconclusive: 32.6 µM [falling, single point] | –
37 | COc1ccc(-c2nc(NC(=O)C3CC(=O)N(c4ccc5c(c4)OCCO5)C3)sc2C)cc1 (configuration not stated) | active: 14.6 µM | –
38 | O=C(O)CSc1cc(NS(=O)(=O)c2cccc([N+](=O)[O-])c2)c2ccccc2c1O | inconclusive: 29.1 µM [falling, single point] | –
39 | COc1ccccc1NS(=O)(=O)c1ccc2oc(SCc3ccc(C#N)cc3)nc2c1 | active: 16.4 µM | –
40 | C=CCOc1ccc(CNc2nccs2)cc1OCC | inconclusive: 6.51 µM [activator, single point] | –
41 | CC(C)N(C(=O)c1ccc(-c2ccccc2F)cc1)C(C)C | inconclusive: 25.9 µM [falling, single point] | –
42 | Cc1ccc(S(=O)(=O)N(C)C)cc1NC(=O)COC(=O)c1ccc2c(=O)n3c(nc2c1)CCC3 | inconclusive: 11.6 µM [activator, partial curve, poor fit] | –
43 | NC(=S)N/N=C/c1ccc2c(c1)OCCO2 | inconclusive: 10.3 µM [activator, partial curve] | –
44 | CC(C)(C)c1cc(C(=O)Nc2ccccc2)ccn1 | inconclusive: 23.1 µM [falling, single point] | –
45 | N#CC1=C(N)NC(SCc2ccc(Cl)cc2)=C(C#N)C12CCCCC2 | inconclusive: 29.1 µM [falling, single point] | –
46 | Nc1ccccc1C(=O)Nc1ccc(Cl)cc1Cl | inconclusive: 20.6 µM [activator, partial curve] | –

Row | SMILES | Potency | activity change, negative = inhibition
47 | Cc1ccc(N2CN(S(=O)(=O)c3cccc([N+](=O)[O-])c3)c3nc4ccccc4nc32)cc1 | inconclusive: 3.66 µM [falling, partial curve, poor fit] | –
48 | COCCn1c(=O)[nH]c2cc(C(=O)NCCN3CCN(c4ccc(OC)cc4)CC3)ccc2c1=O | – | inactive: -7.59%
49 | N#Cc1cc(-c2ccccc2)[nH]c1-c1nccc2ccccc12 | active: 9.2 µM | –
50 | CC(C)CC(=O)Nc1nc2ccc(S(C)(=O)=O)cc2s1 | – | inactive: -3.5%
51 | COc1ccc(CC(=O)Nc2c(C(=O)N3CCN(c4ccccc4F)CC3)oc3ccccc23)cc1OC | inconclusive: 29.1 µM [falling, single point] | –
52 | Cc1noc(C)c1-c1ccc2ncnc(NC(C)c3ccco3)c2c1 (configuration not stated) | inconclusive: 29.1 µM [falling, single point] | –
53 | O=C(CN1CCN(S(=O)(=O)c2ccccc2F)CC1)N1CCc2ccccc2C1 | – | inactive: -25.9%
54 | Cc1ccc(Nc2c(-c3ccco3)nc3ccc(C)cn23)cc1 | – | inactive: 2.33%
55 | O=C(Nc1ccc(Cl)cc1)c1ccc2ncsc2c1 | inconclusive: 5.8 µM [activator, partial curve, poor fit] | –
56 | COc1ccc(NC(=O)CSc2ccc(F)cc2)cc1S(=O)(=O)N1CCCCC1 | inconclusive: 16.4 µM [falling, single point] | –
57 | CSc1nccc(-c2sc(SC)c(C#N)c2-c2ccccc2)n1 | inconclusive: 29.1 µM [falling, partial curve, poor fit] | –
58 | COc1ccc(C(CNC(=O)C2CC2)N(C)C)cc1 (configuration not stated) | inconclusive: 3.66 µM [activator, partial curve] | –
59 | CCc1ccc2nc(N=C(N)N)nc(C)c2c1 | inconclusive: 7.31 µM [activator, partial curve] | –
60 | O=C(Cc1ccccc1[N+](=O)[O-])N1CCc2ccccc2C1 | inconclusive: 16.4 µM [activator, single point] | –
61 | O=C(Nc1ccc2nc(-c3cccnc3)[nH]c2c1)c1ccco1 | inconclusive: 0.517 µM [falling, full curve, poor fit] | –
62 | CCCN(CCC)CCCNC(=O)c1cc2c(-c3ccc(Cl)cc3)nn(C)c2s1 | – | inactive: -11.8%
63 | COc1ccc(NC(=O)Nc2ccc(Cc3ccncc3)cc2)cc1OC | inconclusive: 8.2 µM [falling, partial curve] | –
64 | COc1cc(NC(=O)c2ccccc2F)ccc1NC(=O)c1ccccc1Cl | inconclusive: 0.13 µM [falling, full curve] | –
65 | CC(C)Sc1n[nH]c(=O)n1-c1ccccc1 | inconclusive: 0.326 µM [falling, partial curve, poor fit] | –
66 | O=Nc1c2cc(-c3ccccc3)[nH]nc-2c2ccccc12 | inconclusive: 13 µM [activator, partial curve] | –
67 | O=C(COc1ccc(F)cc1Cl)N1CCN(C(=O)c2cccs2)CC1 | inconclusive: 20.6 µM [falling, partial curve, poor fit] | –

One compound at a time, as listed above. Values in the order: Potency	activity change, negative = inhibition
`COCCn1c(=O)[nH]c2cc(C(=O)NCCN3CCN(c4ccc(OC)cc4)CC3)ccc2c1=O` reads –	inactive: -7.59%
`COc1ccc(C(CNC(=O)C2CC2)N(C)C)cc1` (configuration not stated) reads inconclusive: 3.66 µM [activator, partial curve]	–
`CC(C)Sc1n[nH]c(=O)n1-c1ccccc1` reads inconclusive: 0.326 µM [falling, partial curve, poor fit]	–
`Cc1noc(C)c1-c1ccc2ncnc(NC(C)c3ccco3)c2c1` (configuration not stated) reads inconclusive: 29.1 µM [falling, single point]	–

Source: PubChem BioAssay AID504444 (National Center for Advancing Translational Sciences (NCATS), 2011)
